Assay results as given in paper PMC3157352.

How the values were obtained:
[1] = target: T1, human HUS1, yeast two-hybrid fusion (human) (UniProt O60921); test: two-hybrid; S. cerevisiae AH109, pGADT7 (Gal4 activation domain) and pGBKT7 (Gal4 binding domain) fusions; spot assay on SD-L-W-H and SD-L-W-H-A; RAD18 against the 9-1-1 components also with DNA damage (50 Gy IR, HU, MMS, CPT)
T1 sequence: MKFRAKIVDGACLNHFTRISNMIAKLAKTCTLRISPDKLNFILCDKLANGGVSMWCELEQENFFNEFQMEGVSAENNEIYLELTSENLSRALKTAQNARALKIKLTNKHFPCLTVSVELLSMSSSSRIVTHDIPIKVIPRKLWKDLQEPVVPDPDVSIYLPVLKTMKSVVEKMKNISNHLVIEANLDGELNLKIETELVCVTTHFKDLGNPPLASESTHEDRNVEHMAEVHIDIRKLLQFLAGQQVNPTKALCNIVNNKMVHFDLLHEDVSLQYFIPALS

[2] = target: T2, human RAD1, yeast two-hybrid fusion (human) (UniProt O60671); test: as above
T2 sequence: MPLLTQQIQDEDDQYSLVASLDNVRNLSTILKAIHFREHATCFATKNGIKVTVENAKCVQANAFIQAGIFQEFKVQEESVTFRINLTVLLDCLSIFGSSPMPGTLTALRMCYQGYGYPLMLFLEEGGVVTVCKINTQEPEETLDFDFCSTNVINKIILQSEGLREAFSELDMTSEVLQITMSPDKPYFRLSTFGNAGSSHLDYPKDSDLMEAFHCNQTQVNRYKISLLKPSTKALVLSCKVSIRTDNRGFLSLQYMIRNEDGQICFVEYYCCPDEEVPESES

human RAD9, yeast two-hybrid fusion
binding [1]: binds
binding [2]: binds

These are yes or no findings as the source states them, for the method shown. Binding calls can cover weak binding; strength is not graded here. Sequences can lack the tags named with a protein.
